Measured data: PubChem BioAssay AID1259254 (NCATS, 2017)

Screen: 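Finding genes that stop cells copying their DNA twice in one cycle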 (primary screen)
System: human HCT116 colorectal cancer cells
Reagent: single siRNA against human genes
Time to read-out: 3 days
Read-out: 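Imaged Hoechst DNA stain sorts each cell into a cycle phase by DNA amount; per plate, G2 fraction set to 0% for non-targeting and 100% for GMNN siRNA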
Direction: G2 robust z-score: higher = more G2 cells, more excess DNA replication
Hit rule: 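Active siRNAs have a G2 robust z of 5 or more median absolute deviations over the median, which in these data means about 38% or higher of GMNN control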
Shown is an unselected part of about 59,000 reagents tested. Over the whole deposit, about 1,550 (2.6%) got an active call. 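G2 share is only a proxy for re-replication; each gene was hit by three separate siRNAs, and active genes were retested.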 A number with no mark means an inactive call. The numbers tell different reagents against one gene apart. Further read-outs or replicates are left out here. Reagent sequences are not shown. Not stated in the record: the amount of reagent.

G2 robust z-score, by target and reagent
ARHGEF28: #1 -0.492; #2 0.359; #3 -0.296
SLC52A3: #1 -1.12; #2 -0.658; #3 -0.179
HTR2B: #1 -1.24; #2 -1.16; #3 0.663
HTR7: #1 0.877; #2 -1.13; #3 -0.334
KCP: #1 -0.819; #2 2.51; #3 1.26
WIPI2: #1 1.3; #2 1.42; #3 -0.173
RPUSD4: #1 -1.12; #2 4.35; #3 0.246
KRT39: #1 -0.0128; #2 0.0507; #3 0.163
RIOK2: #1 0.466; #2 -0.755; #3 -1.04
TMEM158: #1 1.29; #2 0.296; #3 -0.223
TCEA3: #1 2.47; #2 0.682; #3 7.84 (active)
GPR141: #1 0.168; #2 0.85; #3 -0.0311
STX4: #1 -0.117; #2 -0.99; #3 -0.333

Hits (from the list above):
G2 robust z-score, by target and reagent
TCEA3: #3 7.84 (active)

The list goes on:
G2 robust z-score, by target and reagent
IGFBP3: #1 -0.938; #2 1.98; #3 -0.144
CHCHD3: #1 -0.3; #2 -0.871; #3 0.411
NUDT1: #1 0.0885; #2 1.15; #3 3.5
TLR10: #1 -0.135; #2 -0.104; #3 -1.11
NCOA1: #1 0.926; #2 -0.685; #3 -0.947
FOXM1: #1 0.859; #2 0.582; #3 0.915
TTBK2: #1 2.82; #2 -1.18; #3 -0.588
FSD1L: #1 -0.984; #2 -0.787; #3 -0.873
MTRR: #1 3.94; #2 -0.868; #3 1.39
DNM3: #1 -1.22; #2 -0.611; #3 1.42
PREB: #1 -1.19; #2 0.534; #3 0.36
DNAJC10: #1 -0.482; #2 -1.21; #3 1.45
SEC24B: #1 0.336; #2 -0.4; #3 0.414
LRATD2: #1 4.08; #2 2.81; #3 -0.485
RTN4RL2: #1 2.31; #2 -0.459; #3 -0.674
TFAP2A: #1 -0.57; #2 0.231; #3 -0.768
